In patent US7060486B2, “Inhibition of sulfate-reducing-bacteria-mediated degradation using bacteria which secrete antimicrobials” (priority 1998, dated 2006):
Some entries share one result that the patent states for a list of compounds.

Tested on: D. gigas (ATCC 19364)
Assay: SRB inhibitory assay: viability after one-hour exposure, MPN technique
Assay type: cell-based
Conditions: 25 μg/mL, late-exponential-phase culture
Experimental: D. vulgaris (ATCC 29579) and D. gigas (ATCC 19364) were obtained from the American Type Culture Collection and cultivated in 15 mL screwcap tubes with 10 mL of modified Baar's medium (ATCC medium 1249) supplemented with 100 μL each of the oxygen-scavengers 4% sodium sulfide and Oxyrase (Oxyrase Inc., Mansfeld, Ohio). Initial cultures were grown from −85° C. glycerol stocks; all subsequent cultures were grown with a 3% inoculum from the initial culture maintained at 30° C. without shaking. […] SRB were also cultured periodically in the presence of 0.1% ferrous ammonium sulfate, and the presence of these sulfate-reducers was confirmed by the detection of black iron sulfide in the culture tubes. […]
For determining the viability indices (Romeo, et al., 1988) of SRB, a late-exponential phase culture (O.D600 0.16 to 0.19 which corresponded to an initial cell number of 5–9×10^4 cells/mL) was exposed to various concentrations of antimicrobials for 1 hour at 30° C. […] The effectiveness of treatment was determined by the multiple-tube most-probable-number (MPN) fermentation technique. […]
The MPN test for enumerating SRB was performed in three 12 mL tubes with a 1000 μL inoculum of SRB, three 12 mL tubes with a 500 μL inoculum, and three 12 mL tubes with a 100 μL inoculum. […] The tubes were monitored for 72 hours to determine the number of tubes that were positive for growth. […]

## CC[C@H](C)[C@H](N)C(=O)N[C@@H](CC(C)C)C(=O)N1CCC[C@H]1C(=O)N[C@@H](Cc1c[nH]c2ccccc12)C(=O)N[C@@H](CCCCN)C(=O)N[C@@H](Cc1c[nH]c2ccccc12)C(=O)N1CCC[C@H]1C(=O)N[C@@H](Cc1c[nH]c2ccccc12)C(=O)N[C@@H](Cc1c[nH]c2ccccc12)C(=O)N1CCC[C@H]1C(=O)N[C@@H](Cc1c[nH]c2ccccc12)C(=O)N[C@@H](CCCN=C(N)N)C(=O)N[C@@H](CCCN=C(N)N)C(N)=O [Ind-NH2, indolicidin]
  reduction of viability: 92–96%
